Measurements from ChEMBL document CHEMBL1156417, “Transferable resistance to aminoglycosides by methylation of G1405 in 16S rRNA and to hydrophilic fluoroquinolones by QepA-mediated efflux in Escherichia coli” (2007).
Converted amounts (≈) assume the structure as drawn.

Key:
Assay type in all cases: functional
Escherichia coli [1] = test: Antibacterial activity against Escherichia coli TOP10 containing pIP1206 plasmid in presence of 40 ug/ml efflux pump inhibitor 1-(1-naphthylmethyl)-piperazine by Etest
Escherichia coli [2] = test: Antibacterial activity against Escherichia coli TOP10 containing pIP1206 plasmid in presence of 50 ug/ml efflux pump inhibitor phenyl-arginine-beta-naphthylamide by Etest
Escherichia coli [3] = test: Antibacterial activity against Escherichia coli TOP10 in presence of 50 ug/ml efflux pump inhibitor phenyl-arginine-beta-naphthylamide by Etest
Escherichia coli [4] = test: Antibacterial activity against Escherichia coli C600Rif containing pIP1206 plasmid in presence of 50 ug/ml efflux pump inhibitor phenyl-arginine-beta-naphthylamide by Etest
Escherichia coli [5] = test: Antibacterial activity against Escherichia coli C600Rif in presence of 40 ug/ml efflux pump inhibitor 1-(1-naphthylmethyl)-piperazine by Etest
Escherichia coli [6] = test: Antibacterial activity against Escherichia coli TOP10 in presence of 40 ug/ml efflux pump inhibitor 1-(1-naphthylmethyl)-piperazine by Etest
Escherichia coli [7] = test: Antibacterial activity against Escherichia coli TOP10 containing pAT851 in presence of 40 ug/ml efflux pump inhibitor 1-(1-naphthylmethyl)-piperazine by Etest
Escherichia coli [8] = test: Antibacterial activity against Escherichia coli TOP10 containing pAT851 in presence of 50 ug/ml efflux pump inhibitor phenyl-arginine-beta-naphthylamide by Etest
Escherichia coli [9] = test: microbe, parasite or virus in culture
Escherichia coli [10] = test: Antibacterial activity against Escherichia coli C600Rif in presence of 50 ug/ml efflux pump inhibitor phenyl-arginine-beta-naphthylamide by Etest

Q: With `CCn1cc(C(=O)O)c(=O)c2cc(F)c(N3CCN(C)CC3)cc21` [PEFLOXACIN] as the compound, how does the MIC (Escherichia coli [1]) read?
A: The MIC was 0.016 µg/mL.

Q: What about the MIC (Escherichia coli [2]) of the same compound?
A: The MIC was 0.016 µg/mL.

Q: And the MIC (Escherichia coli [3])?
A: Its MIC is 0.016 µg/mL.

Q: And the MIC (Escherichia coli [4])?
A: Its MIC is 0.032 µg/mL.

Q: And the MIC (Escherichia coli [5])?
A: The MIC was 0.064 µg/mL.

Q: What about the MIC (Escherichia coli [6]) of the same compound?
A: Its MIC is 0.016 µg/mL.

Q: And the MIC (Escherichia coli [7])?
A: Its MIC is 0.016 µg/mL.

Q: And the MIC (Escherichia coli [8])?
A: The MIC was 0.016 µg/mL.

Q: What about the MIC (Escherichia coli [9]) of the same compound?
A: The MIC was 0.064 µg/mL (≈ 0.192 µM).

Q: And the MIC (Escherichia coli [10])?
A: Its MIC is 0.047 µg/mL.
